Source: patent US20050287136A1
Results are given in words; binding and its absence hold for the method and conditions named. Some results given as binding are weak or reduced against the parent protein; the word gives no strength.

The chains behind the UniProt entries cited, without tags or fusion partners. Residues count along the entry.
UniProt P42081, residues 24-247: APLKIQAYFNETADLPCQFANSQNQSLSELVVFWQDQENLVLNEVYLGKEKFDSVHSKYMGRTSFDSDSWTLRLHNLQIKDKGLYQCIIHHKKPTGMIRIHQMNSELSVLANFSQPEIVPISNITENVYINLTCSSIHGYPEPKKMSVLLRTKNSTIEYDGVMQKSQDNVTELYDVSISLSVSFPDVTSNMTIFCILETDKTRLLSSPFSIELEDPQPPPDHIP

Molecular target: mutated human CTLA4 having the L105M and G106S changes (human)
Experiment: binding to mutant CTLA4 (L105M, G106S)

binding: binds
Substance: B7.2-IgG1 fusion protein (from UniProt P42081 24-247) (Fc fusion)
